Assay results published in PubChem BioAssay AID485314 (National Center for Advancing Translational Sciences (NCATS), 2010).
“And” between values parts separate entries of the source, which are not always exact repeats. Identical values can stand only once. The whole screen tested about 340,000 compounds, of which about 4,500 (1.3%) were called active. This list was built around the results that the source calls inconclusive (neither active nor inactive); the mix of calls is not that of the screen. The call rests on the fitted dose curve; in most records, active means well fitted inhibition curve with a large enough effect; inconclusive means small, poorly fitted or top-dose-only effect, or another doubt; inactive means no such curve, though single readings can be large or run the other way. Potencies of inconclusive entries are doubtful fits and often do not repeat.
On the % scale 0 is the no-effect control and ±100 the full control effect; potency means the concentration at half of the fitted maximal effect.

What follows are molecules tested against DNA polymerase beta (Homo sapiens) (UniProt P06746) (assay: qHTS Assay for Inhibitors of DNA Polymerase Beta). Conditions: Pol beta primer extension/strand displacement, fluorescence kinetic; activity change, negative = inhibition: at 114 µM (top of the series).
Summary of the method: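 Reaction started by 50 nM substrate onto compound-treated Pol beta (10 nM, 15 min preincubation, room temperature); plates read at 0 min and 10 min. Normalized concentration-effect data fitted by four-parameter Hill equation.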
In the case of `Cc1cc(C)n(-c2ccc(C(=O)Nc3sccc3C(N)=O)cc2)n1`, the Potency is reported as inconclusive: 89.1 µM [inhibitor, partial curve].
For `Cn1cnnc1SCC(=O)Nc1nc(-c2ccccc2)cs1`, the Potency was active: 15.8 µM.
For `O=C(NNC(=O)c1cc(-c2cccnc2)nc2ccccc12)Nc1ccc(Cl)cc1`, the Potency was inconclusive: 0.447 µM [inhibitor, partial curve, poor fit].
`COc1c(Br)cc([N+](=O)[O-])c(OC)c1C(=O)NC(=O)Nc1c(Cl)cccc1Cl` was tested, and the Potency was inconclusive: 15.8 µM [inhibitor, partial curve].
For `CC(CCc1ccccc1)NC(=O)Cn1cccc1C(=O)c1ccccc1` (centres undefined), the “activity change, negative = inhibition” value was inactive: 94.2%.
With `CCc1cccc(C)c1NC(=O)CN1C(=O)C2(SCC(=O)N2c2cc(C)cc(C)c2)c2ccccc21` (centres undefined) the “activity change, negative = inhibition” value was inactive: -0.555%.
With `COc1ccc(OC)c(C2C3=C(N=c4s/c(=C\c5cccc(O)c5)c(=O)n42)c2ccccc2CC3)c1` (centres undefined) the Potency was inconclusive: 56.2 µM [inhibitor, partial curve].
For `CCCN1C(=O)/C(=C/c2c(N3CCNC(=O)C3CC(=O)OC)nc3c(C)cccn3c2=O)SC1=S` (centres undefined), the Potency was active: 89.1 µM.
`COC(=O)c1cccc(NC(=O)CSc2nc(=O)cc(N)n2-c2ccccc2)c1` was tested, and the Potency was inconclusive: 15.8 µM [inhibitor, full curve].
`Cc1cc(C)n2nc(SCC(=O)Nc3ccc(F)cc3)nc2n1` was tested, and the Potency was inconclusive: 28.2 µM [inhibitor, single point].
For `CCOC(=O)c1cccc(NS(=O)(=O)c2cc3[nH]c(=O)c(=O)[nH]c3cc2C)c1`, the Potency was inconclusive: 3.55 µM [inhibitor, single point].
In the case of `CCCOc1ccc(NC(=O)CC2C(=O)N(c3ccc(C)cc3)C(=O)N2Cc2cccc(OC)c2)cc1` (centres undefined), the “activity change, negative = inhibition” value is reported as inactive: 0.165%.
For `COC(=O)c1ccc(C23CC4(C2)[C@H](CN(Cc2cccnc2)[C@@H]4c2ccccc2)C3c2ccccc2)cc1` (some centres undefined), the Potency was inconclusive: 89.1 µM [inhibitor, single point].
With `Cc1ccc2c(c1C)NC(C(=O)O)C1CC=CC21` (centres undefined) the Potency was active: 3.16 µM and active: 2.51 µM.
For `c1cncc(-c2nc3c(ccc4ccccc43)[nH]2)c1`, the Potency was inconclusive: 79.4 µM [inhibitor, single point].
`CCOC(=O)C1CCN(c2c(C(=O)c3ccc(C)cc3)cnc3ccc(F)cc23)CC1` was tested, and the Potency was inconclusive: 31.6 µM [inhibitor, partial curve, poor fit].
With `COc1ccc(C(C)C)cc1S(=O)(=O)Nc1ccncc1` the Potency was inconclusive: 100 µM [inhibitor, single point].
For `CCOC(=O)CC(=O)CSc1ncnc2c1nnn2-c1ccccc1`, the “activity change, negative = inhibition” value was inactive: 3.46%.
`CCOC(=O)COc1cccc2c(=O)n(CC(=O)N3CCCCC3)ccc12` was tested, and the activity change, negative = inhibition was inconclusive: -103% [inhibitor].
`C=CCn1c(N)c(C(=O)OCC)sc1=S` was tested, and the Potency was inconclusive: 39.8 µM [inhibitor, single point].
For `Cc1ccc(C(=O)NCC(=O)O)s1`, the Potency was inconclusive: 10 µM [inhibitor, full curve].
`Cc1onc(-c2c(Cl)cccc2Cl)c1-c1nc2cc(Cl)ccc2c(=O)o1` was tested, and the Potency was inconclusive: 31.6 µM [inhibitor, partial curve, poor fit].
For `O=C(NC12CC3CC(CC(C3)C1)C2)C1CC(=O)N(c2ccc(Br)cc2)C1` (centres undefined), the Potency was inconclusive: 0.141 µM [inhibitor, full curve, poor fit].
`COc1cc(NC(=O)Nc2cccc(C(C)=O)c2)cc(OC)c1OC` was tested, and the Potency was inconclusive: 28.2 µM [inhibitor, full curve, poor fit].
`O=C(NC(c1ccc(Cl)cc1)c1cc(Cl)c2cccnc2c1O)c1cccnc1` (centres undefined) was tested, and the “activity change, negative = inhibition” value was inactive: 1.32%.
With `CC(=O)N1CCC(N(CCN2CCOCC2)C(=S)Nc2ccc(C)cc2)CC1` the “activity change, negative = inhibition” value was inactive: 8.89%.
For `COc1ccc(N2C(=NC(=O)C3CC3)SC3CS(=O)(=O)CC32)cc1Cl` (centres undefined), the Potency was inconclusive: 0.316 µM [inhibitor, full curve, poor fit].
`CCOC(=O)C1=C(C)N=c2s/c(=C\c3ccc(OCC(=O)O)cc3)c(=O)n2C1c1ccccc1` (centres undefined) was tested, and the “activity change, negative = inhibition” value was inactive: -21.7%.
In the case of `CN/N=C/c1ccc(C#N)cc1`, the “activity change, negative = inhibition” value is reported as inactive: 13.6%.
With `COc1ccc(NC2=Nc3cccc4cccc2c34)cc1` the Potency was inconclusive: 79.4 µM [inhibitor, single point].
`COc1cccc(C2C(C(=O)Nc3ccccc3)=C(C)Nc3nnnn32)c1OC` (centres undefined) was tested, and the “activity change, negative = inhibition” value was inactive: 1.1%.
With `COC(=O)c1ccccc1NC(=O)CSc1nc(O)c(-c2ccccc2)c(=O)[nH]1` the Potency was inconclusive: 35.5 µM [inhibitor, full curve].
In the case of `Cc1ccccc1-n1ncc2c(SCC(=O)NC3CCCC3)ncnc21`, the Potency is reported as inconclusive: 89.1 µM [inhibitor, single point].
With `O=c1/c(=C\c2cccc(O)c2)sc2nc(-c3ccccc3)c(-c3ccccc3)n12` the activity change, negative = inhibition was inconclusive: -43.3% [inhibitor].
In the case of `CCN(CC)c1ccc(N)cc1S(=O)(=O)Nc1ccccc1OC`, the “activity change, negative = inhibition” value is reported as inactive: -1.07%.
For `Cc1nc2c(C(=O)NCCc3ccc(Cl)cc3)c[nH]n2c(=O)c1Cc1ccccc1F`, the Potency was inconclusive: 89.1 µM [inhibitor, partial curve].
With `CC(=O)N(Cc1cccnc1)c1nc2c(C)cccc2s1` the “activity change, negative = inhibition” value was inactive: 0.833%.
For `Cn1cc(-c2cc3n(n2)CCC(=O)N3CCCC(=O)Nc2ccc(F)cc2F)c2ccccc21`, the Potency was inconclusive: 14.1 µM [inhibitor, full curve].
For `O=C(Cc1cccs1)Nc1ccccn1`, the Potency was inconclusive: 15.8 µM [inhibitor, full curve].
With `Cn1c(SCC(=O)Nc2cccc(S(=O)(=O)NC3=NCCCCC3)c2)nnc1-c1ccccc1` the Potency was inconclusive: 100 µM [inhibitor, single point].
For `Cc1cc(C(=O)COC(=O)CNC(=O)c2ccco2)c(C)n1Cc1ccco1`, the Potency was inconclusive: 22.4 µM [inhibitor, partial curve].
With `CC(Oc1ccccc1)C(=O)OCC(=O)NC(=O)NCc1ccco1` (centres undefined) the Potency was inconclusive: 2.82 µM [inhibitor, full curve].
`O=C(CSc1nnc(-c2ccco2)n1-c1ccccc1)N1CCOCC1` was tested, and the Potency was inconclusive: 89.1 µM [inhibitor, single point].
